# These are yes or no findings as the source states them, for the method shown. In cells and extracts the contact can be indirect. Some results given as binding are weak or reduced against the parent protein; the word gives no strength.
# Amino acid sequences for entries named in this document (tags omitted).
# UniProt P01106: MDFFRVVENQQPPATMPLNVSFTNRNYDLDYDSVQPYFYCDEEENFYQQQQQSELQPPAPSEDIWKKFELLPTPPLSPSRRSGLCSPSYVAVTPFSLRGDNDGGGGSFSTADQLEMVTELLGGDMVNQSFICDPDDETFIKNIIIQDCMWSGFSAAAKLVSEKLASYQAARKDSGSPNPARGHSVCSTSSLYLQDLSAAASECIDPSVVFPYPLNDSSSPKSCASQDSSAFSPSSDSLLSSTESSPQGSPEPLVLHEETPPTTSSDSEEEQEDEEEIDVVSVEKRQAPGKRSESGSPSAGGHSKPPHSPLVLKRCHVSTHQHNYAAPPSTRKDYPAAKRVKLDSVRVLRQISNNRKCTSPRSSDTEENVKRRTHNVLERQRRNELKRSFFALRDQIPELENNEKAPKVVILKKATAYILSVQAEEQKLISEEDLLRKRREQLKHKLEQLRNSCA
# UniProt Q8TEK3: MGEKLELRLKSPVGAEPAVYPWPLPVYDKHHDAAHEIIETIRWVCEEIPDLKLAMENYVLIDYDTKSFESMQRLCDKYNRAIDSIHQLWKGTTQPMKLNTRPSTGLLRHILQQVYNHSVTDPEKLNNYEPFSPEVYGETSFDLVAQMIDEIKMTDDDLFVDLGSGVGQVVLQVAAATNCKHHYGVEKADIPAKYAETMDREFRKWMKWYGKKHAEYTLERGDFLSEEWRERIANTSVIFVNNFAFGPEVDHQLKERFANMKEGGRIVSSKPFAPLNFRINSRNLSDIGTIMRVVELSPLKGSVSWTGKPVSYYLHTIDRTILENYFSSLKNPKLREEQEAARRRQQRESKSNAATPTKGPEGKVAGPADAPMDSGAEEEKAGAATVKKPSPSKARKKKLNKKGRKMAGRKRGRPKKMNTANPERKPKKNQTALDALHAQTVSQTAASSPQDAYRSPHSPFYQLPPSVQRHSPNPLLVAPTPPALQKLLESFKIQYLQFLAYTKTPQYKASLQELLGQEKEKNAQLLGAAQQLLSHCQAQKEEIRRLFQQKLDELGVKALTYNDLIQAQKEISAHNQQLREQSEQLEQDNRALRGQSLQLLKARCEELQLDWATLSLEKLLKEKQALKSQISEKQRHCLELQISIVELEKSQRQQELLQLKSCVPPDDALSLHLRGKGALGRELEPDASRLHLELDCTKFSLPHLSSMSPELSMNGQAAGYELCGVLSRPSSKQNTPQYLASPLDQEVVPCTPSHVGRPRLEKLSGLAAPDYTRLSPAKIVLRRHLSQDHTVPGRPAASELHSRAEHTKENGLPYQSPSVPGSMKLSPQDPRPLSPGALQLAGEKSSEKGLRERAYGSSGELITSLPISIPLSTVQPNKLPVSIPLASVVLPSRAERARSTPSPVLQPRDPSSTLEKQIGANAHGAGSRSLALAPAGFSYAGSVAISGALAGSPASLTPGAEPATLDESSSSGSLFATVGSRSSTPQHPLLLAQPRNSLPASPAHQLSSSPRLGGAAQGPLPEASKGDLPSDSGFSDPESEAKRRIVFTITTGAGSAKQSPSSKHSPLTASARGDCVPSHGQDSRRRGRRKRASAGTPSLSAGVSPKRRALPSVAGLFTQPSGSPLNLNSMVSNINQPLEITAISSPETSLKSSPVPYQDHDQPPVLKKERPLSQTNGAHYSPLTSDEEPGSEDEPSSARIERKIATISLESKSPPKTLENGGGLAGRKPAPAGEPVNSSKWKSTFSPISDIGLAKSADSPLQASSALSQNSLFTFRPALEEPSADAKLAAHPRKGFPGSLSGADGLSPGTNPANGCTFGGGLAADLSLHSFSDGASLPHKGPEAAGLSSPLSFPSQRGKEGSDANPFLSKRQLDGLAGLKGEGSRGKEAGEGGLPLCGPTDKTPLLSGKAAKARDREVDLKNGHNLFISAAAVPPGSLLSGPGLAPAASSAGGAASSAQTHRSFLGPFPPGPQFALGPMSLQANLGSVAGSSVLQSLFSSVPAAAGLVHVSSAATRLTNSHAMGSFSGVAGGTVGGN
# UniProt Q09472: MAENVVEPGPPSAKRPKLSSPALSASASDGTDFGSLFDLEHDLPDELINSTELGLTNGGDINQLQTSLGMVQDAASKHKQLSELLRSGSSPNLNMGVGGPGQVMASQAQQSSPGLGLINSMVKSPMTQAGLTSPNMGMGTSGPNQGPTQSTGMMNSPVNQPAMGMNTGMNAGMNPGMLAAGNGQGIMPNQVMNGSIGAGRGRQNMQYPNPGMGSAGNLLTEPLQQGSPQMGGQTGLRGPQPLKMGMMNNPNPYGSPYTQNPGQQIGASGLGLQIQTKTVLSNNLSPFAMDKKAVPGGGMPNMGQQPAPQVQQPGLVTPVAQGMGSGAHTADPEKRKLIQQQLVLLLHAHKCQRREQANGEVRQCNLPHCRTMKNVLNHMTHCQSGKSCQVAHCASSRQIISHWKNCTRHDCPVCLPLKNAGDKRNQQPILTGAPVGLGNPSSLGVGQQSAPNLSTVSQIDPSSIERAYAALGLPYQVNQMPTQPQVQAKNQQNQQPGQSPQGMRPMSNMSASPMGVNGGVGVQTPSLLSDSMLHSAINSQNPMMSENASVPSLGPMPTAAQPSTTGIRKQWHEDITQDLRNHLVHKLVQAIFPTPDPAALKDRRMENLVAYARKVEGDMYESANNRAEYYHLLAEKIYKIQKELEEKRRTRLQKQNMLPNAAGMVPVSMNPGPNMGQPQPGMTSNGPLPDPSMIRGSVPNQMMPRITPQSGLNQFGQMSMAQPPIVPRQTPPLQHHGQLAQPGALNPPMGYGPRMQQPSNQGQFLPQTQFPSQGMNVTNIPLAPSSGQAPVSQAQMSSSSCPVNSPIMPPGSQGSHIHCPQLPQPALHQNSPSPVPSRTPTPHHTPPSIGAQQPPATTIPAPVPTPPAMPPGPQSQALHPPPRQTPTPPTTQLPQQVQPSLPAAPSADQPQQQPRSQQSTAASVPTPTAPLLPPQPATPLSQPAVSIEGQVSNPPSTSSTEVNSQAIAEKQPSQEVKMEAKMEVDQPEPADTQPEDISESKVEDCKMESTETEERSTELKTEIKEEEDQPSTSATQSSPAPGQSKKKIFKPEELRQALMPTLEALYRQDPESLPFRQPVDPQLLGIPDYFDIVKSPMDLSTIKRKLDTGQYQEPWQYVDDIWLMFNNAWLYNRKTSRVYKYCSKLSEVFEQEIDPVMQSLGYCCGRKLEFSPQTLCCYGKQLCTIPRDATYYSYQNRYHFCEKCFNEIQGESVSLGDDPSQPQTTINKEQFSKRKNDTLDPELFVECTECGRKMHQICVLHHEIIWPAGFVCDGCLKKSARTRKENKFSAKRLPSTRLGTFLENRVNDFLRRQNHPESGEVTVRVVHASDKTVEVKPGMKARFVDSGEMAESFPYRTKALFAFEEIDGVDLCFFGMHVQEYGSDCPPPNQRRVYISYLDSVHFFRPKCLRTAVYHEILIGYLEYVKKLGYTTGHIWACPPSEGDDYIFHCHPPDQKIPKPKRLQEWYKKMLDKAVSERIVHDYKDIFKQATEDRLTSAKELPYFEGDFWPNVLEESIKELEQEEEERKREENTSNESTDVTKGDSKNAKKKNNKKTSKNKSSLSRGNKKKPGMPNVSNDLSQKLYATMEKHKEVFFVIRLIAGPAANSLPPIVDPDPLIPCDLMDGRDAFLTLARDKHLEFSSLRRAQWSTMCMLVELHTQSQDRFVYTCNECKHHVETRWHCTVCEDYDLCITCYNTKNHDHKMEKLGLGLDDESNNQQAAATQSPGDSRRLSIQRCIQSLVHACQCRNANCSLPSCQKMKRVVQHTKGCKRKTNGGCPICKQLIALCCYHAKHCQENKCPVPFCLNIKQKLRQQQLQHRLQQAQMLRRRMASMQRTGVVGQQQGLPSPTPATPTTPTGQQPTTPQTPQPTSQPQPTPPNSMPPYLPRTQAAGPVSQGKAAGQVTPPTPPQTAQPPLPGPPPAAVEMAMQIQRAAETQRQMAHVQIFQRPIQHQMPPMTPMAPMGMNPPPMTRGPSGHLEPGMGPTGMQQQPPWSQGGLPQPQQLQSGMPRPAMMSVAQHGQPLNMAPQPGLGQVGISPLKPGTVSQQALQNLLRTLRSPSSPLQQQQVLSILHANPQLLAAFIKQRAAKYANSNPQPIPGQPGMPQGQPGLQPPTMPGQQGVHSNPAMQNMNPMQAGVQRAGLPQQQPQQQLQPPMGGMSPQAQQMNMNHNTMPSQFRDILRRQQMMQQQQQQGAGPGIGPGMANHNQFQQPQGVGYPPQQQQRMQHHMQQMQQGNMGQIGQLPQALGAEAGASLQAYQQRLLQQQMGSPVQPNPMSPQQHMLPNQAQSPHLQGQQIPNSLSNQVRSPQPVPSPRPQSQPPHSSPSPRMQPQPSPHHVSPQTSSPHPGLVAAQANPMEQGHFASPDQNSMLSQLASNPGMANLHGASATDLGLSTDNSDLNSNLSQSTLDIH
# Legend:
# GST-c-Myc = GST-c-Myc (UniProt P01106); experiment: pull-down; GST-c-Myc (Abnova) held by anti-c-Myc antibody on protein A-agarose beads, reacted with lysates of 293T cells transfected with pCI-neo-DOT1L or empty vector; bound DOT1L detected by immunoblotting; only the target purified
# c-Myc = c-Myc (UniProt P01106); experiment: co-IP; lysates (1-2 mg) of 293T cells transfected with DOT1L and/or c-Myc constructs, in RIPA buffer (50 mM Tris pH 7.4, 150 mM NaCl, 1 mM EDTA, 1% NP-40, 0.25% sodium deoxycholate); antibody (1 ug) overnight at 4 °C, protein A or G-agarose 2 h at 4 °C, washed with ice-cold PBS; immunoblotting
# [1] = molecular target: Disruptor of telomeric silencing-1-like (DOT1L) (human) (UniProt Q8TEK3); experiment: as above
binding (GST-c-Myc),binding (c-Myc),binding [1],Substance
binds,binds,–,Disruptor of telomeric silencing-1-like (DOT1L) (from UniProt Q8TEK3 1-1537) (enzyme)
–,binds,binds,p300 acetyltransferase (from UniProt Q09472 1-2414) (enzyme)

# From publication PMC4525167
